Experimental data taken from publication PMC2637609.
These are yes or no findings as the source states them, for the method shown. Binding seen in cells or lysates may run through a third protein. Some binding calls cover weakened binding; strength is not graded here. For some assays here: Sequences can lack the tags named with a protein.

T1: Coilin (Drosophila (endogenous in larvae)) (UniProt A1Z7A8)
T1 sequence: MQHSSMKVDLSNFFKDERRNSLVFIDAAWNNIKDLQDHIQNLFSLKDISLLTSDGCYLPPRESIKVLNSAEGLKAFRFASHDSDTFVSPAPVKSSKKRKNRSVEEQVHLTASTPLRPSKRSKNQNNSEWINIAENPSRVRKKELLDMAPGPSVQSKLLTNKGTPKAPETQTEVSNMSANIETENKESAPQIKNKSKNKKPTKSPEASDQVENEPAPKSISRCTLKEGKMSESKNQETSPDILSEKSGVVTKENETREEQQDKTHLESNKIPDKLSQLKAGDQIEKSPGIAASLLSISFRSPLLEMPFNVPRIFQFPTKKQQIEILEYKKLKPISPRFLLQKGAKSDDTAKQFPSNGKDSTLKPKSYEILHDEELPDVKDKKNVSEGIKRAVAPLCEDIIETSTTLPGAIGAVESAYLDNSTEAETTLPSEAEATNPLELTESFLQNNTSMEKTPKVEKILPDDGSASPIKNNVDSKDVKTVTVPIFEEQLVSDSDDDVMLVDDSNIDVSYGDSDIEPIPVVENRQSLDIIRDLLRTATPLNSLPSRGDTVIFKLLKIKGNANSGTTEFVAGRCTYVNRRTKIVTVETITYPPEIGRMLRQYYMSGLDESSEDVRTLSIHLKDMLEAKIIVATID

T2: intrinsic PARP1 protein (Drosophila (endogenous in wild-type Drosophila)) (UniProt P35875)
T2 sequence: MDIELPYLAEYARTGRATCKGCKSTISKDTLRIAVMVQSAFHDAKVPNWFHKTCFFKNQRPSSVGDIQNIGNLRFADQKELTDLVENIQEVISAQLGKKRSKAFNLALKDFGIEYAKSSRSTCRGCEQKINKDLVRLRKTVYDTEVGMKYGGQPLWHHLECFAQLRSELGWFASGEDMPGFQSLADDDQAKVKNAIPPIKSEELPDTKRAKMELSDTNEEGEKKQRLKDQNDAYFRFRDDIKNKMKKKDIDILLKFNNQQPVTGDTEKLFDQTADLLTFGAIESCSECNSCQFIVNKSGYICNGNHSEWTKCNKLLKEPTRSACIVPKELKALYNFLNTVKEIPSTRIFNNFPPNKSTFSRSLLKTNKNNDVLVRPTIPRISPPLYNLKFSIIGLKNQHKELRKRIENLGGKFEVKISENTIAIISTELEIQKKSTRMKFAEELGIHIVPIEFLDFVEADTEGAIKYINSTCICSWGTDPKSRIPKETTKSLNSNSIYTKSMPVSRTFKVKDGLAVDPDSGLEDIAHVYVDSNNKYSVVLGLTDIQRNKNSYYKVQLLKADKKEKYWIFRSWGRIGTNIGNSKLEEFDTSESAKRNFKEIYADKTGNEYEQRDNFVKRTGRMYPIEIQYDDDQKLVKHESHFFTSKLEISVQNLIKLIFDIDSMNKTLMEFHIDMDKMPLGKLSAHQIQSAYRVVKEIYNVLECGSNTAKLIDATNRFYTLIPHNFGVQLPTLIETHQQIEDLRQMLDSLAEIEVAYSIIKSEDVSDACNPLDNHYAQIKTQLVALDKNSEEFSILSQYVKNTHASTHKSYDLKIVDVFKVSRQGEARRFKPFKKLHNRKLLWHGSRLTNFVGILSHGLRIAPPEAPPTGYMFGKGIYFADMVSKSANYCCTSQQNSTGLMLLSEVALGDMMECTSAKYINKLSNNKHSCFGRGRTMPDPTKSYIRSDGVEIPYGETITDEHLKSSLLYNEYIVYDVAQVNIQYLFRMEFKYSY

T3: PARP1-ECFP (Drosophila) (UniProt P35875)
T3 sequence: T2 sequence

B1: PARP1-ECFP (enzyme, UniProt P35875 1-994)
chain: T2 sequence
B2: Coilin (protein, UniProt A1Z7A8 1-634)
chain: T1 sequence
B3: disk-large (Dlg) (protein, UniProt P31007 1-970)
chain: MPVKKQEAHRALELLEDYHARLSEPQDRALRIAIERVIRIFKSRLFQALLDIQEFYELTLLDDSKSIQQKTAETLQIATKWEKDGQAVKIADFIKSSNLNRNCAYEFNNDASSNQTNQSALNQNPIANNVSAQAQAEALSRTFKSELEEILNQRMRIESDTENAKEPTVEQQQKQQQAQQRSSRSPQQQNPQQQQGSKSRSGSQTVNGDDSWLYEDIQLERGNSGLGFSIAGGTDNPHIGTDTSIYITKLISGGAAAADGRLSINDIIVSVNDVSVVDVPHASAVDALKKAGNVVKLHVKRKRGTATTPAAGSAAGDARDSAASGPKVIEIDLVKGGKGLGFSIAGGIGNQHIPGDNGIYVTKLMDGGAAQVDGRLSIGDKLIAVRTNGSEKNLENVTHELAVATLKSITDKVTLIIGKTQHLTTSASGGGGGGLSSGQQLSQSQSQLATSQSQSQVHQQQHATPMVNSQSTEPGSRYASTNVLAAVPPGTPRAVSTEDITREPRTITIQKGPQGLGFNIVGGEDGQGIYVSFILAGGPADLGSELKRGDQLLSVNNVNLTHATHEEAAQALKTSGGVVTLLAQYRPEEYNRFEARIQELKQQAALGAGGSGTLLRTTQKRSLYVRALFDYDPNRDDGLPSRGLPFKHGDILHVTNASDDEWWQARRVLGDNEDEQIGIVPSKRRWERKMRARDRSVKFQGHAAANNNLDKQSTLDRKKKNFTFSRKFPFMKSRDEKNEDGSDQEPFMLCYTQDDANAEGASEENVLSYEAVQRLSINYTRPVIILGPLKDRINDDLISEYPDKFGSCVPHTTRPKREYEVDGRDYHFVSSREQMERDIQNHLFIEAGQYNDNLYGTSVASVREVAEKGKHCILDVSGNAIKRLQVAQLYPVAVFIKPKSVDSVMEMNRRMTEEQAKKTYERAIKMEQEFGEYFTGVVQGDTIEEIYSKVKSMIWSQSGPTIWVPSKESL

Key:
[1] = biological target: T1, Coilin (Drosophila (endogenous in larvae)); assay: co-IP; guinea pig anti-Coilin antibody, Protein-G Sepharose; total protein extracts of Drosophila PARP1 mutant stock expressing PARP1-ECFP or PARPe-EGFP (wild type as control); Western blot
[2] = biological target: T2, intrinsic PARP1 protein (Drosophila (endogenous in wild-type Drosophila)); assay: co-IP; rabbit antibody against the C-terminal domain of PARP1 (anti-GFP as control); extracts of wild-type Drosophila; Western blot
PARP1-ECFP (Drosophila) = biological target: T3, PARP1-ECFP (Drosophila); assay: co-IP; rabbit anti-GFP antibody, Protein-G Sepharose; extracts of Drosophila stocks expressing PARP1-ECFP or PARPe-EGFP (wild type as control); Western blot

Binder | binding [1] | binding [2] | binding (PARP1-ECFP (Drosophila))
B1 | binds | – | –
B2 | – | binds | binds
B3 | no binding | – | no binding
